Test results from paper PMC5548489.

The chains behind the UniProt entries cited, without tags or fusion partners.
UniProt P03372: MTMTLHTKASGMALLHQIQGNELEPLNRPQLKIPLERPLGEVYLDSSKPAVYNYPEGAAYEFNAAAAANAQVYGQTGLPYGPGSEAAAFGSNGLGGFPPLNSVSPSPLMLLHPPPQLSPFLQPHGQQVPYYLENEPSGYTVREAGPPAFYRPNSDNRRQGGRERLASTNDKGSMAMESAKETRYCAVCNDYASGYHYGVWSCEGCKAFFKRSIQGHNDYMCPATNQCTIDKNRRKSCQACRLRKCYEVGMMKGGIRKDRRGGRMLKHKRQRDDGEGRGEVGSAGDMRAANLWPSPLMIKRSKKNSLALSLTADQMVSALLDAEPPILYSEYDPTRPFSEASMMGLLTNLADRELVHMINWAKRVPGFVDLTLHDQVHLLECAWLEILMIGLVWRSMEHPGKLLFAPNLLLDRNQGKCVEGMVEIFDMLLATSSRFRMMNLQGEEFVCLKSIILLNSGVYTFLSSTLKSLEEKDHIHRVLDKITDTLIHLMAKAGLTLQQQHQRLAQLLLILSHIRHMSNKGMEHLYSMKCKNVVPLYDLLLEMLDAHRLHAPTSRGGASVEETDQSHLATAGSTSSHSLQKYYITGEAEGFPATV

B1: VPS18 (protein, UniProt Q9P253 1-973)
chain: MASILDEYENSLSRSAVLQPGCPSVGIPHSGYVNAQLEKEVPIFTKQRIDFTPSERITSLVVSSNQLCMSLGKDTLLRIDLGKANEPNHVELGRKDDAKVHKMFLDHTGSHLLIALSSTEVLYVNRNGQKVRPLARWKGQLVESVGWNKALGTESSTGPILVGTAQGHIFEAELSASEGGLFGPAPDLYFRPLYVLNEEGGPAPVCSLEAERGPDGRSFVIATTRQRLFQFIGRAAEGAEAQGFSGLFAAYTDHPPPFREFPSNLGYSELAFYTPKLRSAPRAFAWMMGDGVLYGALDCGRPDSLLSEERVWEYPEGVGPGASPPLAIVLTQFHFLLLLADRVEAVCTLTGQVVLRDHFLEKFGPLKHMVKDSSTGQLWAYTERAVFRYHVQREARDVWRTYLDMNRFDLAKEYCRERPDCLDTVLAREADFCFRQRRYLESARCYALTQSYFEEIALKFLEARQEEALAEFLQRKLASLKPAERTQATLLTTWLTELYLSRLGALQGDPEALTLYRETKECFRTFLSSPRHKEWLFASRASIHELLASHGDTEHMVYFAVIMQDYERVVAYHCQHEAYEEALAVLARHRDPQLFYKFSPILIRHIPRQLVDAWIEMGSRLDARQLIPALVNYSQGGEVQQVSQAIRYMEFCVNVLGETEQAIHNYLLSLYARGRPDSLLAYLEQAGASPHRVHYDLKYALRLCAEHGHHRACVHVYKVLELYEEAVDLALQVDVDLAKQCADLPEEDEELRKKLWLKIARHVVQEEEDVQTAMACLASCPLLKIEDVLPFFPDFVTIDHFKEAICSSLKAYNHHIQELQREMEEATASAQRIRRDLQELRGRYGTVEPQDKCATCDFPLLNRPFYLFLCGHMFHADCLLQAVRPGLPAYKQARLEELQRKLGAAPPPAKGSARAKEAEGGAATAGPSREQLKADLDELVAAECVYCGELMIRSIDRPFIDPQRYEEEQLSWL
B2: VPS39 (protein, UniProt Q96JC1 1-886)
chain: MHDAFEPVPILEKLPLQIDCLAAWEEWLLVGTKQGHLLLYRIRKDVVPADVASPESGSCNRFEVTLEKSNKNFSKKIQQIHVVSQFKILVSLLENNIYVHDLLTFQQITTVSKAKGASLFTCDLQHTETGEEVLRMCVAVKKKLQLYFWKDREFHELQGDFSVPDVPKSMAWCENSICVGFKRDYYLIRVDGKGSIKELFPTGKQLEPLVAPLADGKVAVGQDDLTVVLNEEGICTQKCALNWTDIPVAMEHQPPYIIAVLPRYVEIRTFEPRLLVQSIELQRPRFITSGGSNIIYVASNHFVWRLIPVPMATQIQQLLQDKQFELALQLAEMKDDSDSEKQQQIHHIKNLYAFNLFCQKRFDESMQVFAKLGTDPTHVMGLYPDLLPTDYRKQLQYPNPLPVLSGAELEKAHLALIDYLTQKRSQLVKKLNDSDHQSSTSPLMEGTPTIKSKKKLLQIIDTTLLKCYLHTNVALVAPLLRLENNHCHIEESEHVLKKAHKYSELIILYEKKGLHEKALQVLVDQSKKANSPLKGHERTVQYLQHLGTENLHLIFSYSVWVLRDFPEDGLKIFTEDLPEVESLPRDRVLGFLIENFKGLAIPYLEHIIHVWEETGSRFHNCLIQLYCEKVQGLMKEYLLSFPAGKTPVPAGEEEGELGEYRQKLLMFLEISSYYDPGRLICDFPFDGLLEERALLLGRMGKHEQALFIYVHILKDTRMAEEYCHKHYDRNKDGNKDVYLSLLRMYLSPPSIHCLGPIKLELLEPKANLQAALQVLELHHSKLDTTKALNLLPANTQINDIRIFLEKVLEENAQKKRFNQVLKNLLHAEFLRVQEERILHQQVKCIITEEKVCMVCKKKIGNSAFARYPNGVVVHYFCSKEVNPADT
B3: HNRNPL (protein, UniProt P14866 1-589)
chain: MSRRLLPRAEKRRRRLEQRQQPDEQRRRSGAMVKMAAAGGGGGGGRYYGGGSEGGRAPKRLKTDNAGDQHGGGGGGGGGAGAAGGGGGGENYDDPHKTPASPVVHIRGLIDGVVEADLVEALQEFGPISYVVVMPKKRQALVEFEDVLGACNAVNYAADNQIYIAGHPAFVNYSTSQKISRPGDSDDSRSVNSVLLFTILNPIYSITTDVLYTICNPCGPVQRIVIFRKNGVQAMVEFDSVQSAQRAKASLNGADIYSGCCTLKIEYAKPTRLNVFKNDQDTWDYTNPNLSGQGDPGSNPNKRQRQPPLLGDHPAEYGGPHGGYHSHYHDEGYGPPPPHYEGRRMGPPVGGHRRGPSRYGPQYGHPPPPPPPPEYGPHADSPVLMVYGLDQSKMNCDRVFNVFCLYGNVEKVKFMKSKPGAAMVEMADGYAVDRAITHLNNNFMFGQKLNVCVSKQPAIMPGQSYGLEDGSCSYKDFSESRNNRFSTPEQAAKNRIQHPSNVLHFFNAPLEVTEENFFEICDELGVKRPSSVKVFSGKSERSSSGLLEWESKSDALETLGFLNHYQMKNPNGPYPYTLKLCFSTAQHAS
B4: LUC7L3 (protein, UniProt O95232 1-432)
chain: MISAAQLLDELMGRDRNLAPDEKRSNVRWDHESVCKYYLCGFCPAELFTNTRSDLGPCEKIHDENLRKQYEKSSRFMKVGYERDFLRYLQSLLAEVERRIRRGHARLALSQNQQSSGAAGPTGKNEEKIQVLTDKIDVLLQQIEELGSEGKVEEAQGMMKLVEQLKEERELLRSTTSTIESFAAQEKQMEVCEVCGAFLIVGDAQSRVDDHLMGKQHMGYAKIKATVEELKEKLRKRTEEPDRDERLKKEKQEREEREKEREREREERERKRRREEEEREKERARDRERRKRSRSRSRHSSRTSDRRCSRSRDHKRSRSRERRRSRSRDRRRSRSHDRSERKHRSRSRDRRRSKSRDRKSYKHRSKSRDREQDRKSKEKEKRGSDDKKSSVKSGSREKQSEDTNTESKESDTKNEVNGTSEDIKSEGDTQSN
B5: DARS (protein, UniProt P14868 1-501)
chain: MPSASASRKSQEKPREIMDAAEDYAKERYGISSMIQSQEKPDRVLVRVRDLTIQKADEVVWVRARVHTSRAKGKQCFLVLRQQQFNVQALVAVGDHASKQMVKFAANINKESIVDVEGVVRKVNQKIGSCTQQDVELHVQKIYVISLAEPRLPLQLDDAVRPEAEGEEEGRATVNQDTRLDNRVIDLRTSTSQAVFRLQSGICHLFRETLINKGFVEIQTPKIISAASEGGANVFTVSYFKNNAYLAQSPQLYKQMCICADFEKVFSIGPVFRAEDSNTHRHLTEFVGLDIEMAFNYHYHEVMEEIADTMVQIFKGLQERFQTEIQTVNKQFPCEPFKFLEPTLRLEYCEALAMLREAGVEMGDEDDLSTPNEKLLGHLVKEKYDTDFYILDKYPLAVRPFYTMPDPRNPKQSNSYDMFMRGEEILSGAQRIHDPQLLTERALHHGIDLEKIKAYIDSFRFGAPPHAGGGIGLERVTMLFLGLHNVRQTSMFPRDPKRLTP
B6: FKBP4 (protein, UniProt Q02790 1-459)
chain: MTAEEMKATESGAQSAPLPMEGVDISPKQDEGVLKVIKREGTGTEMPMIGDRVFVHYTGWLLDGTKFDSSLDRKDKFSFDLGKGEVIKAWDIAIATMKVGEVCHITCKPEYAYGSAGSPPKIPPNATLVFEVELFEFKGEDLTEEEDGGIIRRIQTRGEGYAKPNEGAIVEVALEGYYKDKLFDQRELRFEIGEGENLDLPYGLERAIQRMEKGEHSIVYLKPSYAFGSVGKEKFQIPPNAELKYELHLKSFEKAKESWEMNSEEKLEQSTIVKERGTVYFKEGKYKQALLQYKKIVSWLEYESSFSNEEAQKAQALRLASHLNLAMCHLKLQAFSAAIESCNKALELDSNNEKGLFRRGEAHLAVNDFELARADFQKVLQLYPNNKAAKTQLAVCQQRIRRQLAREKKLYANMFERLAEEENKAKAEASSGDHPTDTEMKEEQKSNTAGSQSQVETEA
B7: GTF3C4 (protein, UniProt Q9UKN8 1-822)
chain: MNTADQARVGPADDGPAPSGEEEGEGGGEAGGKEPAADAAPGPSAAFRLMVTRREPAVKLQYAVSGLEPLAWSEDHRVSVSTARSIAVLELICDVHNPGQDLVIHRTSVPAPLNSCLLKVGSKTEVAECKEKFAASKDPTVSQTFMLDRVFNPEGKALPPMRGFKYTSWSPMGCDANGRCLLAALTMDNRLTIQANLNRLQWVQLVDLTEIYGERLYETSYRLSKNEAPEGNLGDFAEFQRRHSMQTPVRMEWSGICTTQQVKHNNECRDVGSVLLAVLFENGNIAVWQFQLPFVGKESISSCNTIESGITSPSVLFWWEYEHNNRKMSGLIVGSAFGPIKILPVNLKAVKGYFTLRQPVILWKEMDQLPVHSIKCVPLYHPYQKCSCSLVVAARGSYVFWCLLLISKAGLNVHNSHVTGLHSLPIVSMTADKQNGTVYTCSSDGKVRQLIPIFTDVALKFEHQLIKLSDVFGSVRTHGIAVSPCGAYLAIITTEGMINGLHPVNKNYQVQFVTLKTFEEAAAQLLESSVQNLFKQVDLIDLVRWKILKDKHIPQFLQEALEKKIESSGVTYFWRFKLFLLRILYQSMQKTPSEALWKPTHEDSKILLVDSPGMGNADDEQQEEGTSSKQVVKQGLQERSKEGDVEEPTDDSLPTTGDAGGREPMEEKLLEIQGKIEAVEMHLTREHMKRVLGEVYLHTWITENTSIPTRGLCNFLMSDEEYDDRTARVLIGHISKKMNKQTFPEHCSLCKEILPFTDRKQAVCSNGHIWLRCFLTYQSCQSLIYRRCLLHDSIARHPAPEDPDWIKRLLQSPCPFCDSPVF
B8: LONP1 (protein, UniProt P36776 68-959)
chain: FWEASSRGGGAFSGGEDASEGGAEEGAGGAGGSAGAGEGPVITALTPMTIPDVFPHLPLIAITRNPVFPRFIKIIEVKNKKLVELLRRKVRLAQPYVGVFLKRDDSNESDVVESLDEIYHTGTFAQIHEMQDLGDKLRMIVMGHRRVHISRQLEVEPEEPEAENKHKPRRKSKRGKKEAEDELSARHPAELAMEPTPELPAEVLMVEVENVVHEDFQVTEEVKALTAEIVKTIRDIIALNPLYRESVLQMMQAGQRVVDNPIYLSDMGAALTGAESHELQDVLEETNIPKRLYKALSLLKKEFELSKLQQRLGREVEEKIKQTHRKYLLQEQLKIIKKELGLEKDDKDAIEEKFRERLKELVVPKHVMDVVDEELSKLGLLDNHSSEFNVTRNYLDWLTSIPWGKYSNENLDLARAQAVLEEDHYGMEDVKKRILEFIAVSQLRGSTQGKILCFYGPPGVGKTSIARSIARALNREYFRFSVGGMTDVAEIKGHRRTYVGAMPGKIIQCLKKTKTENPLILIDEVDKIGRGYQGDPSSALLELLDPEQNANFLDHYLDVPVDLSKVLFICTANVTDTIPEPLRDRMEMINVSGYVAQEKLAIAERYLVPQARALCGLDESKAKLSSDVLTLLIKQYCRESGVRNLQKQVEKVLRKSAYKIVSGEAESVEVTPENLQDFVGKPVFTVERMYDVTPPGVVMGLAWTAMGGSTLFVETSLRRPQDKDAKGDKDGSLEVTGQLGEVMKESARIAYTFARAFLMQHAPANDYLVTSHIHLHVPEGATPKDGPSAGCTIVTALLSLAMGRPVRQNLAMTGEVSLTGKILPVGGIKEKTIAAKRAGVTCIVLPAENKKDFYDLAAFITEGLEVHFVEHYREIFDIAFPDEQAEALAVER

These binders were tested against estrogen receptor alpha (ER) (human (endogenous in MCF-7 and ZR-75)) (UniProt P03372) (assay: affinity purification with mass spectrometry; anti-ER antibody (Santa Cruz sc-8002) on Dynabeads Protein G, 1.5 mg lysate of MCF-7 or ZR-75 cells overnight at 4°C; cells starved, vehicle or 10 µM ERX-11 for 2 hr, then 10 nM E2 for 2 hr; the named proteins are ER binders whose co-precipitation was disrupted by ERX-11).

binding, binds:
B1
B2
B3
B4
B5
B6
B7
B8

These are yes or no findings as the source states them, for the method shown. Binding seen in cells or lysates may run through a third protein. A yes stands for co-enrichment or nearness to the bait. Other partners may have been found. Sequences can lack the tags named with a protein.
